In the experiment the test system is B6C3F1 mice, intracerebral ependymoblastoma, median survival T/C. In words: NCI In Vivo Anticancer Drug Screen. Data for tumor model Ependymoblastoma (intracerebral) in B6C3F1 mice. The conditions noted are these: T/C endpoint: median survival time, higher T/C = longer survival. On the procedure: The antitumor activity of compounds was measured in mice bearing transplantable tumors. Survival or tumor size were measured and the results are expressed as the measurement made in the treated group (T) divided by the measurement made in the vehicle treated control group (C). The tumor model used in this assay is Ependymoblastoma (intracerebral) in B6C3F1 mice

Where [1] appears, read: dose: 6.25 mg/kg/injection, schedule: Q01DX009 (ip), vehicle: clinical formulation.
Where [2] appears, read: dose: 100.0 mg/kg/injection, schedule: Q01DX005 (ip), vehicle: saline with Tween-80.
[3] abbreviates: dose: 200.0 mg/kg/injection, schedule: Q01DX009 (ip), vehicle: saline with Tween-80.

Each structure is given as a SMILES string. The list does not hold the whole screen: it gathers tests that were run many times, whatever their T/C, doses with no T/C, and many T/C values between a quarter and a half above the control. Other doses and runs of a compound stand elsewhere. T/C is the treated group as % of the vehicle group. Some doses have a count of surviving animals in place of a T/C: the source holds a T/C of zero for them, seemingly a mark for toxic or unscored doses. Some survivor counts are full or nearly so, which does not show that the dose was tolerated: the source hardly ever lists a survival T/C far under the control, and the zero likely stands for such cases as well. Survivors were counted at the toxicity check, usually on the fifth day, unless a day is given; later deaths do not show. Schedule codes are those of the source, read here as Q, the interval in days (D) or hours (H), X, the number of doses. Some doses were run more than once; their values stand side by side, smallest first. Where survival is the endpoint, the PubChem record calls one and a half times the control and up active, and a quarter to a half above the control has no call in these data; cut-offs in other NCI protocols can differ. Some T/C values carry the count of animals alive at the toxicity check (mostly the fifth day); where none is given, no animal had died by that day.

Consider `CCCCN(C)N=Nc1c(C(N)=O)n[nH]c1C`, for which the T/C runs as follows: (dose: 16.0 mg/kg/injection, schedule: Q01DX005 (ip), vehicle: saline with Tween-80) 141 % of control; (dose: 32.0 mg/kg/injection, schedule: Q01DX005 (ip), vehicle: saline with Tween-80) 148 % of control. For the same compound, the survivor count by setting is: (dose: 128.0 mg/kg/injection, schedule: Q01DX005 (ip), vehicle: saline with Tween-80) 7 of 10; (dose: 256.0 mg/kg/injection, schedule: Q01DX005 (ip), vehicle: saline with Tween-80) 4 of 10.

On to `O=NN(CCCl)C(=O)NC1[C@H](O)CCC[C@@H]1O` (stereo not given in full), for which the T/C (dose: 7.2 mg/kg/injection, schedule: Q01DX001 (ip), vehicle: saline) is 135 % of control. The survivor count by setting is: (dose: 12.0 mg/kg/injection, schedule: Q01DX005 (ip), vehicle: saline) 10 of 10; (dose: 20.0 mg/kg/injection, schedule: Q01DX005 (ip), vehicle: Klucel (hydroxypropylcellulose) (HPC)) 4 of 10 on day 6; (dose: 20.0 mg/kg/injection, schedule: Q01DX005 (ip), vehicle: saline) 10 of 10; (dose: 33.3 mg/kg/injection, schedule: Q01DX001 (ip), vehicle: saline) 10 of 10 on day 6; (dose: 33.3 mg/kg/injection, schedule: Q01DX005 (ip), vehicle: saline) 9 of 10.

Turning to `Cc1ncc(CO)c(C)c1O`, the T/C was 103 [survivors not given], 105, 106 [survivors not given], 111 % of control [survivors not given] (dose: 128.0 mg/kg/injection, schedule: Q01DX001 (ip), vehicle: Klucel (hydroxypropylcellulose) (HPC)) and 91 [survivors not given], 92 [survivors not given], 95 [survivors not given], 107 % of control (dose: 256.0 mg/kg/injection, schedule: Q01DX001 (ip), vehicle: Klucel (hydroxypropylcellulose) (HPC)). Moreover, the survivor count (dose: 512.0 mg/kg/injection, schedule: Q01DX001 (ip), vehicle: Klucel (hydroxypropylcellulose) (HPC)) is 3 of 10; the survivor count (dose: 512.0 mg/kg/injection, schedule: Q01DX005 (ip), vehicle: Klucel (hydroxypropylcellulose) (HPC)) is listed as 0 of 10; the survivor count (dose: 1024.0 mg/kg/injection, schedule: Q01DX001 (ip), vehicle: Klucel (hydroxypropylcellulose) (HPC)) was 0 of 10; the survivor count (dose: 1024.0 mg/kg/injection, schedule: Q01DX005 (ip), vehicle: Klucel (hydroxypropylcellulose) (HPC)) was 0 of 10.

Consider `CO[C@H]1C[C@@H]2CC[C@@H](C)[C@@](O)(O2)C(=O)C(=O)N2CCCC[C@H]2C(=O)O[C@H]([C@H](C)C[C@@H]2CC[C@@H](O)[C@H](OC)C2)CC(=O)[C@H](C)C=C(C)[C@@H](O)[C@@H](OC)C(=O)[C@H](C)C[C@H](C)/C=C/C=C/C=C1C`, for which the T/C runs as follows: (dose: 3.12 mg/kg/injection, schedule: Q01DX009 (ip), vehicle: clinical formulation) 138 % of control; (dose: 3.12 mg/kg/injection, schedule: Q01DX009 (ip), vehicle: saline with Tween-80) 130 and 132 % of control; under setting [1], 130 % of control; (dose: 6.25 mg/kg/injection, schedule: Q01DX009 (ip), vehicle: saline with Tween-80) 137 and 144 % of control [9 of 10 alive]; (dose: 12.5 mg/kg/injection, schedule: Q01DX005 (ip), vehicle: saline with Tween-80) 112 [9 of 10 alive], 136, 137, 141 % of control; (dose: 12.5 mg/kg/injection, schedule: Q01DX009 (ip), vehicle: clinical formulation) 128 [9 of 10 alive] and 133 % of control. The T/C by setting is: (dose: 12.5 mg/kg/injection, schedule: Q01DX009 (ip), vehicle: saline with Tween-80) 94, 146, 150, 178 % of control; (dose: 25.0 mg/kg/injection, schedule: Q01DX005 (ip), vehicle: saline with Tween-80) 134, 140, 150, 219 % of control; (dose: 25.0 mg/kg/injection, schedule: Q01DX009 (ip), vehicle: clinical formulation) 146 % of control; (dose: 25.0 mg/kg/injection, schedule: Q01DX009 (ip), vehicle: saline with Tween-80) 136, 187, 189, 201 % of control; (dose: 50.0 mg/kg/injection, schedule: Q01DX005 (ip), vehicle: saline with Tween-80) 92, 125, 149, 186 % of control; (dose: 50.0 mg/kg/injection, schedule: Q01DX009 (ip), vehicle: saline with Tween-80) 89, 138, 187 [9 of 10 alive], 211 % of control. The T/C under setting [2] is 127, 152 [7 of 10 alive], 195 % of control; the T/C (dose: 100.0 mg/kg/injection, schedule: Q01DX009 (ip), vehicle: saline with Tween-80) is recorded as 143, 150, 178, 214 % of control; the T/C under setting [3] was 100, 162, 243 % of control. Also, the survivor count is, setting by setting: under setting [1], 10 of 10; under setting [2], 10 of 10; (dose: 200.0 mg/kg/injection, schedule: Q01DX009 (ip), vehicle: clinical formulation) 6 of 10 and 7 of 10; (dose: 200.0 mg/kg/injection, schedule: Q01DX009 (ip), vehicle: gum acacia) 10 of 10; under setting [3], 10 of 10; (dose: 400.0 mg/kg/injection, schedule: Q01DX009 (ip), vehicle: saline with Tween-80) 10 of 10.

Consider `CN(N=O)C(=O)N[C@@H](C=O)[C@@H](O)[C@H](O)[C@H](O)CO`, for which the T/C is 130 % of control (dose: 32.0 mg/kg/injection, schedule: Q01DX005 (ip), vehicle: other); 134 % of control (dose: 50.0 mg/kg/injection, schedule: Q01DX005 (ip), vehicle: saline); 125 % of control [8 of 9 alive] (dose: 50.0 mg/kg/injection, schedule: Q01DX009 (ip), vehicle: citric acid); 136 % of control (dose: 64.0 mg/kg/injection, schedule: Q01DX005 (ip), vehicle: other); 136 % of control (dose: 150.0 mg/kg/injection, schedule: Q01DX001 (ip), vehicle: saline); 141 % of control (dose: 300.0 mg/kg/injection, schedule: Q01DX001 (ip), vehicle: saline). The survivor count (dose: 100.0 mg/kg/injection, schedule: Q01DX009 (ip), vehicle: citric acid) is listed as 9 of 10; the survivor count (dose: 128.0 mg/kg/injection, schedule: Q01DX005 (ip), vehicle: other) is 10 of 10; the survivor count (dose: 200.0 mg/kg/injection, schedule: Q01DX009 (ip), vehicle: citric acid) is reported as 5 of 10; the survivor count (dose: 256.0 mg/kg/injection, schedule: Q01DX005 (ip), vehicle: other) is given as 9 of 10; the survivor count (dose: 500.0 mg/kg/injection, schedule: Q01DX001 (ip), vehicle: saline) is listed as 8 of 10; the survivor count (dose: 512.0 mg/kg/injection, schedule: Q01DX005 (ip), vehicle: other) is 0 of 10. For the same compound, for the setting “dose: 1024.0 mg/kg/injection, schedule: Q01DX001 (ip), vehicle: other”, the survivor count is given as 6 of 10.

Values taken from PubChem BioAssay AID226 (DTP/NCI, 2004).
